Source: PMC12483278, “The viral BCL2 protein BHRF1 of Epstein–Barr virus promotes AIM2 inflammasome activation to facilitate lytic replication” (PLOS Pathogens, 2025)
These are yes or no findings as the source states them, for the method shown. In cells and extracts the contact can be indirect. Binding can be weak; no strength is given. Tags and fused reporters may be left off the sequences shown.

Target: T1, GST-AIM2 full-length (UniProt O14862)
T1 sequence: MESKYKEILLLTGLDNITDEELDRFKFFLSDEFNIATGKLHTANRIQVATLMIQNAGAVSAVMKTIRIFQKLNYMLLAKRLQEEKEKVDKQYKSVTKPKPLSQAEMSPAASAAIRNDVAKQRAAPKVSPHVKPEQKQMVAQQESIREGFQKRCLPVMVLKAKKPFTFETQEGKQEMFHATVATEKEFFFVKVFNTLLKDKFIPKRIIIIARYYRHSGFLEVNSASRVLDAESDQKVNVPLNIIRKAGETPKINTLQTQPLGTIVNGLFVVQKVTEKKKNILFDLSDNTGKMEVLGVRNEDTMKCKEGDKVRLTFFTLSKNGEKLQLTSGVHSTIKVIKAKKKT
Experiment: co-IP

## GFP-BHRF1 with the N-terminal domain deleted (Epstein–Barr virus) (domain or fragment)
  binding: binds
